Reference: article doi:10.1101/2024.07.03.601239
Results are given in words; binding and its absence hold for the method and conditions named. Binding seen in cells or lysates may run through a third protein. Here binding means that the protein was enriched with, or labelled near, the bait; the list need not be complete. Where a sequence is shown, tags or fusion partners need not be part of it.

Protein sequences, listed by entry. Tags and fused reporters are not part of them.
UniProt O94913: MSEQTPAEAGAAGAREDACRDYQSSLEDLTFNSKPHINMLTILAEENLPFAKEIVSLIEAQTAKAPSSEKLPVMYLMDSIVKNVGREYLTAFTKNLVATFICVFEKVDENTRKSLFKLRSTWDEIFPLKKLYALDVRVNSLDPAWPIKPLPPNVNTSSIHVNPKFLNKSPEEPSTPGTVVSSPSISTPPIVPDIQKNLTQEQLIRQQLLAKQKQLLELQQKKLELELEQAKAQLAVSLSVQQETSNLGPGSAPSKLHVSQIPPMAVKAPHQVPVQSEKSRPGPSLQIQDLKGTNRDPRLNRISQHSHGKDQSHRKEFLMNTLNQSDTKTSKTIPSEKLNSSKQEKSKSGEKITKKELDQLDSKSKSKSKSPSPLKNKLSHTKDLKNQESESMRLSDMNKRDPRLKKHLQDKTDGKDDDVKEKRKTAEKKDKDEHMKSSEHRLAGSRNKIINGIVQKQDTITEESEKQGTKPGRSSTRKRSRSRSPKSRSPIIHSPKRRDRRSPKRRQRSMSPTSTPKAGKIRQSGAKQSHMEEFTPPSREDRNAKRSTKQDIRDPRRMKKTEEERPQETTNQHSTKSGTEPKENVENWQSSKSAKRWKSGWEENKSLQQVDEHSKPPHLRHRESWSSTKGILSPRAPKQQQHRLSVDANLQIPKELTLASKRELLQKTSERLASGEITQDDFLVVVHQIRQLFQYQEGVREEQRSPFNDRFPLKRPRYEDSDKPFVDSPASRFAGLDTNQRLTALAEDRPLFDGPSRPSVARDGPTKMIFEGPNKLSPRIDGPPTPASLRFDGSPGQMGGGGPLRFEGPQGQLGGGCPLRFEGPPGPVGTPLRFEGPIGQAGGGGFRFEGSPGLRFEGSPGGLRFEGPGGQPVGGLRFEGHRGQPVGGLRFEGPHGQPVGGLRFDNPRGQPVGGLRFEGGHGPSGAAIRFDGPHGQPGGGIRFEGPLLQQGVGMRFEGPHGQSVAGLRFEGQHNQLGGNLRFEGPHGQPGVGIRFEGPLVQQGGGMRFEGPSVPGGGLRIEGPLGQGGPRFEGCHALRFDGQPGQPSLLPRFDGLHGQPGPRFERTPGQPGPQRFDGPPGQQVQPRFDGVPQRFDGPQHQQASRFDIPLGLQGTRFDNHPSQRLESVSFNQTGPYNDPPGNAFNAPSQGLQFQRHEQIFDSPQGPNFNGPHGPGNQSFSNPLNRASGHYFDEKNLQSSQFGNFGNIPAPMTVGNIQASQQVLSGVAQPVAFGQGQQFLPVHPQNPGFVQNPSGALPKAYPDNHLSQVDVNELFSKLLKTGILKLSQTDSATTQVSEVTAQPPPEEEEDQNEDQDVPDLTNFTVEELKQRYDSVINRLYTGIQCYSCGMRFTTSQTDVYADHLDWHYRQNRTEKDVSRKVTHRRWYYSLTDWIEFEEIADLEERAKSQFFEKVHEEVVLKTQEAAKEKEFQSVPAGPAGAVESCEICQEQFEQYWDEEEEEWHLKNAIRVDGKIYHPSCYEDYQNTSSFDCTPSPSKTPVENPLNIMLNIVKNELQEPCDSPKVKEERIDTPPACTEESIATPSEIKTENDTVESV
UniProt O75152: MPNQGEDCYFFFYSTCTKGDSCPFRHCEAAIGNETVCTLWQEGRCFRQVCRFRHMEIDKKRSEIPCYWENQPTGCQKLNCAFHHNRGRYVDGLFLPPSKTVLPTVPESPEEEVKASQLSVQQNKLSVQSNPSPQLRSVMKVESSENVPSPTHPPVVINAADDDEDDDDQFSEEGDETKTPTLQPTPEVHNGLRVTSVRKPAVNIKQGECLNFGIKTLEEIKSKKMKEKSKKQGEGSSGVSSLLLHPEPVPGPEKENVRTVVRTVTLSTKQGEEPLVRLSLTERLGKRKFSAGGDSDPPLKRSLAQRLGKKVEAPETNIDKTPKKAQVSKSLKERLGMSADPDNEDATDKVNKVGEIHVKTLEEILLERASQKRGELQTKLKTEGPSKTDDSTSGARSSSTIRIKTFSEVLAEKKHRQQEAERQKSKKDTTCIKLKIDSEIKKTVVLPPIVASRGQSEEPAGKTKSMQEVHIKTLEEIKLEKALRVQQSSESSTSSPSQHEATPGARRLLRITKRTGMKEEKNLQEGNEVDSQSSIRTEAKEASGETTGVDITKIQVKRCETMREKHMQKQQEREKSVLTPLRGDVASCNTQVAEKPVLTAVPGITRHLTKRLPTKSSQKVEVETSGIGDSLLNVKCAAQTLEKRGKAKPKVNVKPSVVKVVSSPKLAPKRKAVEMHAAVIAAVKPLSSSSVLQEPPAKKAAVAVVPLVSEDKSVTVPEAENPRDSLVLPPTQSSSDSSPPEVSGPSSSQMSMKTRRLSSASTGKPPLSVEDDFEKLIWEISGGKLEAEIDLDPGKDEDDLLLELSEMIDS
UniProt Q9UJV9: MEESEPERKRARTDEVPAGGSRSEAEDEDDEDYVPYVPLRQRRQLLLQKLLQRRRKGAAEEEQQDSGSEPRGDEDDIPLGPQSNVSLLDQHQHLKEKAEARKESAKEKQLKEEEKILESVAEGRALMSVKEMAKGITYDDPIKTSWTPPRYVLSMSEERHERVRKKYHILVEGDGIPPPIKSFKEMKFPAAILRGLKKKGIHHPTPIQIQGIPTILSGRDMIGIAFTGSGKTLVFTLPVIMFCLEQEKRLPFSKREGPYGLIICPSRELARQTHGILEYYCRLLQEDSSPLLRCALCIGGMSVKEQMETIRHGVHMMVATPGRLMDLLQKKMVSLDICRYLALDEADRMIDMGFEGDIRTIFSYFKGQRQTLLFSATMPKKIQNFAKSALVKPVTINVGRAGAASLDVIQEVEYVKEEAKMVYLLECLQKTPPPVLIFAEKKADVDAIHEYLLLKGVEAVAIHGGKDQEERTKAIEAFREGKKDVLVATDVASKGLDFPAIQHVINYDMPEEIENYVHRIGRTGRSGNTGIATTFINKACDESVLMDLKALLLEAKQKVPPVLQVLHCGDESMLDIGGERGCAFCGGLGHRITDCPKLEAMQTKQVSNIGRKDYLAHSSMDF

T1: PPIL4, miniTurbo-tagged bait for reciprocal BioID (human) (UniProt Q8WUA2)
T1 sequence: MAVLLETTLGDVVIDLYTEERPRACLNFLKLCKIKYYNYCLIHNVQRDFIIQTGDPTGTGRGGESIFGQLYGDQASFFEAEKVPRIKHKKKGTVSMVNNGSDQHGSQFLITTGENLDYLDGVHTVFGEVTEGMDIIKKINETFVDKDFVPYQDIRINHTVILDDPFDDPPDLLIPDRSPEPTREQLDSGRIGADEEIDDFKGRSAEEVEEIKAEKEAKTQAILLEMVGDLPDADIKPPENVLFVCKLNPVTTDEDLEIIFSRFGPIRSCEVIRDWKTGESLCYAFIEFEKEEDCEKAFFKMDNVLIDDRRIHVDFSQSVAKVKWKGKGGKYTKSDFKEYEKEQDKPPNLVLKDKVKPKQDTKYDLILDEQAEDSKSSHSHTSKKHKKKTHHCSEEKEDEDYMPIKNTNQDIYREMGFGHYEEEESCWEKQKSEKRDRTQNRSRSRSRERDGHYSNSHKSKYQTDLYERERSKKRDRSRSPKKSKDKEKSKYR

T2: C19ORF47, miniTurbo-tagged bait for reciprocal BioID (human) (UniProt Q8N9M1)
T2 sequence: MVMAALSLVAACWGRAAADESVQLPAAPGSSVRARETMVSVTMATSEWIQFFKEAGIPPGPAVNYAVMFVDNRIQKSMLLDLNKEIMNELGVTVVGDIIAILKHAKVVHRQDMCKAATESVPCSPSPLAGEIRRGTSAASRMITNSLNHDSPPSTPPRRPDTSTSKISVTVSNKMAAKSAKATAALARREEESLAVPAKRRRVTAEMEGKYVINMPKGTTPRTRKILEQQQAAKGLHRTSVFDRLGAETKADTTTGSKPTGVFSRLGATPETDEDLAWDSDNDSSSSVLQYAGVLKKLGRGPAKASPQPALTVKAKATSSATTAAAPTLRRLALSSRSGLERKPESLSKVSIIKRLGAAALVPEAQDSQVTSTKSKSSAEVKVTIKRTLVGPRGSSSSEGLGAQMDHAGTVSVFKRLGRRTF

T3: PAXBP1, miniTurbo-tagged bait for reciprocal BioID (human) (UniProt Q9Y5B6)
T3 sequence: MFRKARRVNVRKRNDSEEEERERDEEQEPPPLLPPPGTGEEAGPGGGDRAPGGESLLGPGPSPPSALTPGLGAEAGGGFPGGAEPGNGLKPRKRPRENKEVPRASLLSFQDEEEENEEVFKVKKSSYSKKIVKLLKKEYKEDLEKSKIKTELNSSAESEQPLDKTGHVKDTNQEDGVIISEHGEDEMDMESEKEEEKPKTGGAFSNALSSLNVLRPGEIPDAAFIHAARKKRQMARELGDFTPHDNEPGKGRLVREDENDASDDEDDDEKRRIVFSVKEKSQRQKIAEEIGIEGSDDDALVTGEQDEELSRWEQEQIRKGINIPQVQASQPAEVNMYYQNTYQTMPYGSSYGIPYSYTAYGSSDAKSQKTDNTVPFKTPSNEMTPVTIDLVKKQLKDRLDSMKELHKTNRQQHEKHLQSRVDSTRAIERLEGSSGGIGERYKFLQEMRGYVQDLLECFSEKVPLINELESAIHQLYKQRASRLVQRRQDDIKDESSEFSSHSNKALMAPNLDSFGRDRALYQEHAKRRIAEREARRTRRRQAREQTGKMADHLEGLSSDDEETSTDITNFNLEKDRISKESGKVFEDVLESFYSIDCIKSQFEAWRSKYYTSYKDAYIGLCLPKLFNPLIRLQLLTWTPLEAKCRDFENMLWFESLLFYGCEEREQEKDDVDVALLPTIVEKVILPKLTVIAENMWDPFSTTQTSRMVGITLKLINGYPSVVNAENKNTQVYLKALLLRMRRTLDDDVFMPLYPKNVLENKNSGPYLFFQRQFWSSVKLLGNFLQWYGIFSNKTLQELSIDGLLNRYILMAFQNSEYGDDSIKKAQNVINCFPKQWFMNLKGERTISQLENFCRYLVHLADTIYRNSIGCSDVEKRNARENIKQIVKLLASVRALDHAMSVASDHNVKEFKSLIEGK


Legend:
Assay in all cases: proximity labelling
[1] = target: T1, PPIL4, miniTurbo-tagged bait for reciprocal BioID (human)
[2] = target: T2, C19ORF47, miniTurbo-tagged bait for reciprocal BioID (human)
[3] = target: T3, PAXBP1, miniTurbo-tagged bait for reciprocal BioID (human)

Row | binding [2] | Molecule | other results
1 | – | PCF11 (from UniProt O94913 1-1555) | binding [1]: binds
2 | binds | ZC3H11A (from UniProt O75152 1-810) | –
3 | – | DDX41 (from UniProt Q9UJV9 1-622) | binding [3]: binds
4 | binds | FYTTD1 (protein, UniProt Q96QD9 1-318) MNRFGTRLVGATATSSPPPKARSNENLDKIDMSLDDIIKLNRKEGKKQNFPRLNRRLLQQSGAQQFRMRVRWGIQQNSGFGKTSLNRRGRVMPGKRRPNGVITGLAARKTTGIRKGISPMNRPPLSDKNIEQYFPVLKRKANLLRQNEGQRKPVAVLKRPSQLSRKNNIPANFTRSGNKLNHQKDTRQATFLFRRGLKVQAQLNTEQLLDDVVAKRTRQWRTSTTNGGILTVSIDNPGAVQCPVTQKPRLTRTAVPSFLTKREQSDVKKVPKGVPLQFDINSVGKQTGMTLNERFGILKEQRATLTYNKGGSRFVTVG | –
5 | – | RPRD1B (endogenous prey) (protein, UniProt Q9NQG5 1-326) MSSFSESALEKKLSELSNSQQSVQTLSLWLIHHRKHAGPIVSVWHRELRKAKSNRKLTFLYLANDVIQNSKRKGPEFTREFESVLVDAFSHVAREADEGCKKPLERLLNIWQERSVYGGEFIQQLKLSMEDSKSPPPKATEEKKSLKRTFQQIQEEEDDDYPGSYSPQDPSAGPLLTEELIKALQDLENAASGDATVRQKIASLPQEVQDVSLLEKITDKEAAERLSKTVDEACLLLAEYNGRLAAELEDRRQLARMLVEYTQNQKDVLSEKEKKLEEYKQKLARVTQVRKELKSHIQSLPDLSLLPNVTGGLAPLPSAGDLFSTD | binding [1]: binds
6 | binds | NCBP3 (protein, UniProt Q53F19 1-620) MAAVRGLRVSVKAEAPAGPALGLPSPEAESGVDRGEPEPMEVEEGELEIVPVRRSLKELIPDTSRRYENKAGSFITGIDVTSKEAIEKKEQRAKRFHFRSEVNLAQRNVALDRDMMKKAIPKVRLETIYICGVDEMSTQDVFSYFKEYPPAHIEWLDDTSCNVVWLDEMTATRALINMSSLPAQDKIRSRDASEDKSAEKRKKDKQEDSSDDDEAEEGEVEDENSSDVELDTLSQVEEESLLRNDLRPANKLAKGNRLFMRFATKDDKKELGAARRSQYYMKYGNPNYGGMKGILSNSWKRRYHSRRIQRDVIKKRALIGDDVGLTSYKHRHSGLVNVPEEPIEEEEEEEEEEEEEEEEDQDMDADDRVVVEYHEELPALKQPRERSASRRSSASSSDSDEMDYDLELKMISTPSPKKSMKMTMYADEVESQLKNIRNSMRADSVSSSNIKNRIGNKLPPEKFADVRHLLDEKRQHSRPRPPVSSTKSDIRQRLGKRPHSPEKAFSSNPVVRREPSSDVHSRLGVPRQDSKGLYADTREKKSGNLWTRLGSAPKTKEKNTKKVDHRAPGAEEDDSELQRAWGALIKEKEQSRQKKSRLDNLPSLQIEVSRESSSGSEAES | –
7 | binds | POLDIP3 (protein, UniProt Q9BY77 1-421) MADISLDELIRKRGAAAKGRLNARPGVGGVRSRVGIQQGLLSQSTRTATFQQRFDARQKIGLSDARLKLGVKDAREKLLQKDARFRIKGKVQDAREMLNSRKQQTTVPQKPRQVADAREKISLKRSSPAAFINPPIGTVTPALKLTKTIQVPQQKAMAPLHPHPAGMRINVVNNHQAKQNLYDLDEDDDGIASVPTKQMKFAASGGFLHHMAGLSSSKLSMSKALPLTKVVQNDAYTAPALPSSIRTKALTNMSRTLVNKEEPPKELPAAEPVLSPLEGTKMTVNNLHPRVTEEDIVELFCVCGALKRARLVHPGVAEVVFVKKDDAITAYKKYNNRCLDGQPMKCNLHMNGNVITSDQPILLRLSDSPSMKKESELPRRVNSASSSNPPAEVDPDTILKALFKSSGASVTTQPTEFKIKL | –
